In paper doi:10.1101/2021.05.09.443321:
Results are given in words; binding and its absence hold for the method and conditions named. Binding seen in cells or lysates may run through a third protein. Some entries that bind do so weakly or less than the wild type. Sequences can lack the tags named with a protein.

Amino acid sequences for entries named in this document (tags omitted).
UniProt P63017, whole entry: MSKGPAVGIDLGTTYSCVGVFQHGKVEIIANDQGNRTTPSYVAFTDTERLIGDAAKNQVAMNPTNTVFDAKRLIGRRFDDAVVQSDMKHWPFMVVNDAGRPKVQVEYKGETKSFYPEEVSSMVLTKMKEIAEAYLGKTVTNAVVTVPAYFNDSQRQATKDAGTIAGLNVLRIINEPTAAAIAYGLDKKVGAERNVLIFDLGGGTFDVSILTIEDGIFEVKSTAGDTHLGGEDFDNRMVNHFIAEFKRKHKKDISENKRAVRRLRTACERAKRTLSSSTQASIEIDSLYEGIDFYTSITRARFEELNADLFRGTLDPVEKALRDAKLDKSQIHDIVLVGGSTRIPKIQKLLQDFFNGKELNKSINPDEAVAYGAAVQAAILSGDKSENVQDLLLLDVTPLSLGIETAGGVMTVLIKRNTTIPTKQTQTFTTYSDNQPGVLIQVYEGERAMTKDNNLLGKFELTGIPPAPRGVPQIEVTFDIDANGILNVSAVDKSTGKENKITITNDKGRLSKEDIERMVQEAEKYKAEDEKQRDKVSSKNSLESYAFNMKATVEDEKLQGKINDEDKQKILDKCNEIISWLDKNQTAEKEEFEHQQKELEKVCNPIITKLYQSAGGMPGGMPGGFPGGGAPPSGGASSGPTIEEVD
UniProt P25322, whole entry: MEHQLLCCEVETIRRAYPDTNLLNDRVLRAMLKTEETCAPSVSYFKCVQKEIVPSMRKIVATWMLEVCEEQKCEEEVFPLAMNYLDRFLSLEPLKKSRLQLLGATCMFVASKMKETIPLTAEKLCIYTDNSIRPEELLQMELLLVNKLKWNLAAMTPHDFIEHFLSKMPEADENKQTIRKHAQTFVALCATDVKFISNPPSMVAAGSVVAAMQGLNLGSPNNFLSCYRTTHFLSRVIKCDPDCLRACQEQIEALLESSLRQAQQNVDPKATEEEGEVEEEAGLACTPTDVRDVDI

Biological target: Hsc70-HA (UniProt P63017)
Test: co-IP

Row | binding | Molecule
1 | binds | cyclin D1-Flag (from UniProt P25322 1-295)
2 | binds | CDK4-Flag (protein, UniProt P30285 1-303) MAATRYEPVAEIGVGAYGTVYKARDPHSGHFVALKSVRVPNGGAAGGGLPVSTVREVALLRRLEAFEHPNVVRLMDVCATSRTDRDIKVTLVFEHIDQDLRTYLDKAPPPGLPVETIKDLMRQFLSGLDFLHANCIVHRDLKPENILVTSNGTVKLADFGLARIYSYQMALTPVVVTLWYRAPEVLLQSTYATPVDMWSVGCIFAEMFRRKPLFCGNSEADQLGKIFDLIGLPPEDDWPREVSLPRGAFAPRGPRPVQSVVPEMEESGAQLLLEMLTFNPHKRISAFRALQHSYLHKEESDAE
